# Test results: paper PMC7916480, “Functional and Structural Characterization of Nucleic Acid Ligands That Bind to Activated Coagulation Factor XIII”
# B1: activated coagulation factor XIII (FXIIIa), recombinant human (enzyme, UniProt P00488 39-732)
# chain: GVNLQEFLNVTSVHLFKERWDTNKVDHHTDKYENNKLIVRRGQSFYVQIDFSRPYDPRRDLFRVEYVIGRYPQENKGTYIPVPIVSELQSGKWGAKIVMREDRSVRLSIQSSPKCIVGKFRMYVAVWTPYGVLRTSRNPETDTYILFNPWCEDDAVYLDNEKEREEYVLNDIGVIFYGEVNDIKTRSWSYGQFEDGILDTCLYVMDRAQMDLSGRGNPIKVSRVGSAMVNAKDDEGVLVGSWDNIYAYGVPPSAWTGSVDILLEYRSSENPVRYGQCWVFAGVFNTFLRCLGIPARIVTNYFSAHDNDANLQMDIFLEEDGNVNSKLTKDSVWNYHCWNEAWMTRPDLPVGFGGWQAVDSTPQENSDGMYRCGPASVQAIKHGHVCFQFDAPFVFAEVNSDLIYITAKKDGTHVVENVDATHIGKLIVTKQIGGDGMMDITDTYKFQEGQEEERLALETALMYGAKKPLNTEGVMKSRSNVDMDFEVENAVLGKDFKLSITFRNNSHNRYTITAYLSANITFYTGVPKAEFKKETFDVTLEPLSFKKEAVLIQAGEYMGQLLEQASLHFFVTARINETRDVLAKQKSTVLTIPEIIIKVRGTQVVGSDMTVTVEFTNPLKETLRNVWVHLDGPGVTRPMKKMFREIRPNSTVQWEEVCRPWVSGHRKLIASMSSDSLRHVYGELDVQIQRRPSM
# Target: fibrinogen (Hemocomplettan P)
# Test: microtiter plate binding assay (bound enzyme read by fluorogenic substrate); fibrinogen (3 uM) coated on maxisorb plates; FXIIIa (25 nM), pre-incubated 30 min at RT with aptamers (1-316 nM), added in binding buffer (D-PBS pH 7.4 with 0.9 mM CaCl2, 0.5 mM MgCl2, 0.1% BSA) for 30 min; washed; bound FXIIIa quantified with fluorogenic substrate; both purified
binder,measurement,value
B1,binding,binds

# Results are given in words; binding and its absence hold for the method and conditions named. Binding can be weak; no strength is given.
